{
  "source": "paper PMC4715182",
  "about": "“Structure of a Chaperone-Usher Pilus Reveals the Molecular Basis of Rod Uncoiling” (Cell, 2016)",
  "binders": {"B1": {"name": "PapA wild-type (natural protein)", "chain": "APTIPQGQGKVTFNGTVVDAPCSISQKSADQSIDFGQLSKSFLEAGGVSKPMDLDIELVNCDITAFKGGNGAKKGTVKLAFTGPIVNGHSDELDTNGGTGTAIVVQGAGKNVVFDGSEGDANTLKDGENVLHYTAVVKKSSAVGAAVTEGAFSAVANFNLTYQ", "notes": "PapA, major P pilus rod subunit of uropathogenic E. coli; Ala1 is the very N terminus in the model; also called major pilus subunit PapA; P pilus rod subunit"}},
  "key": {"[1]": {"biological_target": "T1, PapDHis (uropathogenic Escherichia coli (UPEC)) (UniProt P15319)", "T1 sequence": "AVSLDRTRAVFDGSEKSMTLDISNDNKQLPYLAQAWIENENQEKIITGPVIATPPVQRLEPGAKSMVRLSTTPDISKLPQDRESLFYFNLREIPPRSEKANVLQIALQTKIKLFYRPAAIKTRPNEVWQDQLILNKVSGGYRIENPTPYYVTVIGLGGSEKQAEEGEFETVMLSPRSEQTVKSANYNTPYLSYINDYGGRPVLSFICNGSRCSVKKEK", "experiment": "SEC; purified PapDHis:PapA left to polymerize at 20°C for 16 hr at 38 μM; Superdex 200 10/300 increase; donor-strand exchange (DSE) products; both purified"}, "[2]": {"biological_target": "T1, PapDHis (uropathogenic Escherichia coli (UPEC))", "experiment": "co-purification (nickel affinity, size exclusion chromatography); PapDHis and PapA co-expressed; periplasmic extract; HisTrap HP then Superdex 75 in 20 mM Tris (pH 7.5), 150 mM NaCl, 4°C; SDS-PAGE"}},
  "note": "These are yes or no findings as the source states them, for the method shown. Some entries that bind do so weakly or less than the wild type. Sequences can lack the tags named with a protein.",
  "data": [
    {"binder": "B1", "values": [
      {"measurement": "binding", "setting": "[1]", "result": "binds"},
      {"measurement": "binding", "setting": "[2]", "result": "binds"}
    ]}
  ]
}
